Reference: the supplement of paper PMC12067093, “Discovery and optimisation of a covalent ligand for TRIM25 and its application to targeted protein ubiquitination” (Chemical Science, 2025)
The other results are listed elsewhere or left out.

By UniProt entry, the sequences of proteins in these tests, tags left out. Where a name states a change or a piece, a line headed by the entry shows the natural chain unless it says otherwise.
UniProt Q9NS86: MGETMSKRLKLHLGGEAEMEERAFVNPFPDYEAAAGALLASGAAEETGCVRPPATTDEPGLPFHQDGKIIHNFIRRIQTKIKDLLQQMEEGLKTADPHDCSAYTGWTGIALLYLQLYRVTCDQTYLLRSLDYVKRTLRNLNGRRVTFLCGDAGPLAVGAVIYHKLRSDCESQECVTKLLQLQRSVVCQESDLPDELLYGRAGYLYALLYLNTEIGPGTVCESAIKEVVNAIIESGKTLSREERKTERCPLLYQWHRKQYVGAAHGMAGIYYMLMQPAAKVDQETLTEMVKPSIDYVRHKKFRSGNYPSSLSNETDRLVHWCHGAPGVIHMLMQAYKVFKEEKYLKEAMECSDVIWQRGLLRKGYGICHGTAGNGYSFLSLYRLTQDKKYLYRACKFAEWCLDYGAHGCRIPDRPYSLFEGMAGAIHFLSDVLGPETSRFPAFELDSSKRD
UniProt Q9BW19: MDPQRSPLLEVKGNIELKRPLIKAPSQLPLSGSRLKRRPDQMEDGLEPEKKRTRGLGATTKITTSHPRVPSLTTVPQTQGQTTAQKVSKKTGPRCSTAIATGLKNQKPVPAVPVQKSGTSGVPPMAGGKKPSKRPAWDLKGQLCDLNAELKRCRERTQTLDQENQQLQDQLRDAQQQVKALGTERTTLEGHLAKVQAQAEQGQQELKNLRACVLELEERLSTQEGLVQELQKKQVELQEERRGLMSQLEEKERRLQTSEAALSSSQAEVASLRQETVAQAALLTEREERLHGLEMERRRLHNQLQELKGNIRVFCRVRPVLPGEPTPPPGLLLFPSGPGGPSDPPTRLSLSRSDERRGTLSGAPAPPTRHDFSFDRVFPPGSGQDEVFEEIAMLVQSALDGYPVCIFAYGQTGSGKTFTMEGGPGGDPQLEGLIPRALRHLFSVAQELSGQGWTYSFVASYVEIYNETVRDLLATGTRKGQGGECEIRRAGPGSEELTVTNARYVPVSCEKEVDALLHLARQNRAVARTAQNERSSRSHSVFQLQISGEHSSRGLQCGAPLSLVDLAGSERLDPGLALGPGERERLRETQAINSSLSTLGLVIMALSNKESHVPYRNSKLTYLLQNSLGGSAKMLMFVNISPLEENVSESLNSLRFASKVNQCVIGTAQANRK
UniProt Q96JN0: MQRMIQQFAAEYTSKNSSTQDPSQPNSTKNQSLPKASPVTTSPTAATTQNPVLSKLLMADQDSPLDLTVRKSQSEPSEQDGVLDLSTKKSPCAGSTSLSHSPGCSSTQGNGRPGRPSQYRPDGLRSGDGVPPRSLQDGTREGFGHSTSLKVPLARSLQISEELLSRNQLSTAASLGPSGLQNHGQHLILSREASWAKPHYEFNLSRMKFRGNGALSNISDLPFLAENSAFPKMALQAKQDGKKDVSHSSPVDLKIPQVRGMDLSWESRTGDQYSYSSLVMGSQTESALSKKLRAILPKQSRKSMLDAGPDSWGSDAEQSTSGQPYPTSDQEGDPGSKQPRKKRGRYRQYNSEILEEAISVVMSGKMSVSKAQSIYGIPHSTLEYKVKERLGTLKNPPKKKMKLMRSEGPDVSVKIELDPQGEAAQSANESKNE
UniProt Q16719: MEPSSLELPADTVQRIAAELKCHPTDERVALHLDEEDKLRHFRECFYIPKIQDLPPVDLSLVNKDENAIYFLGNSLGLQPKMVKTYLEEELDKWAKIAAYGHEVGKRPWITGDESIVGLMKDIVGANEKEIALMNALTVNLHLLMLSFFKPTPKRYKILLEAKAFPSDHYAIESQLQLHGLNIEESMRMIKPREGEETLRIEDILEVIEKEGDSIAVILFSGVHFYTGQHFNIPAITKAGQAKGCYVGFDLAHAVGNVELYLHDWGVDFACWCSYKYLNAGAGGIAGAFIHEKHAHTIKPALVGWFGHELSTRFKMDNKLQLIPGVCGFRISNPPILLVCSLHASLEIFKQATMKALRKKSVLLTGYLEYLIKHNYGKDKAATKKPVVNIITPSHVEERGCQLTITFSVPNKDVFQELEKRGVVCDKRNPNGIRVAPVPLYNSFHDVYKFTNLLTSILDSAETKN
UniProt P33176: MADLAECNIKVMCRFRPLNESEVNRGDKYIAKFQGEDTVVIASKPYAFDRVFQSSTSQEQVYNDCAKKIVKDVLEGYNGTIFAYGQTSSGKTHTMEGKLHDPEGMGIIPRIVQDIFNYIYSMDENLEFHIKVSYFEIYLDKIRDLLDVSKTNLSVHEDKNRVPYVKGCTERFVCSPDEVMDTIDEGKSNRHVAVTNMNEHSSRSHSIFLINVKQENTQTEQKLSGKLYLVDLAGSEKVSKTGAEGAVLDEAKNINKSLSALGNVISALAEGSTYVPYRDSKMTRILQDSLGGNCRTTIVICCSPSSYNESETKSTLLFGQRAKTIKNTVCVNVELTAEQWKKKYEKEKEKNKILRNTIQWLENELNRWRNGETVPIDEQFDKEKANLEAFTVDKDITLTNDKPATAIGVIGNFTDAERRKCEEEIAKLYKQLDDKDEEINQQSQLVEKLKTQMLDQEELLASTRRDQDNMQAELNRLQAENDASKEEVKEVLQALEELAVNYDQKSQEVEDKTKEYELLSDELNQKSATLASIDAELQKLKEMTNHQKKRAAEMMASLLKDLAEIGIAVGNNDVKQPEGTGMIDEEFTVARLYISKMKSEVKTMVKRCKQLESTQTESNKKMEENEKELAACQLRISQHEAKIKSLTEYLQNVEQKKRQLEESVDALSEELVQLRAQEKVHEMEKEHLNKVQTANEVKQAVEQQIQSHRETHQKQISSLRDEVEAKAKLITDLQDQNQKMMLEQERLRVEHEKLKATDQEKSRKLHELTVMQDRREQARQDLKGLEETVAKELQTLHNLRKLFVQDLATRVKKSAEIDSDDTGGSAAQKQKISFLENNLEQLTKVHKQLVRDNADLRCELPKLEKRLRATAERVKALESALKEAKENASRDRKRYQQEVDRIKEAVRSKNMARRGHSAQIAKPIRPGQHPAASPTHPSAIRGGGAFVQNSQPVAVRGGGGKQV
UniProt O95239: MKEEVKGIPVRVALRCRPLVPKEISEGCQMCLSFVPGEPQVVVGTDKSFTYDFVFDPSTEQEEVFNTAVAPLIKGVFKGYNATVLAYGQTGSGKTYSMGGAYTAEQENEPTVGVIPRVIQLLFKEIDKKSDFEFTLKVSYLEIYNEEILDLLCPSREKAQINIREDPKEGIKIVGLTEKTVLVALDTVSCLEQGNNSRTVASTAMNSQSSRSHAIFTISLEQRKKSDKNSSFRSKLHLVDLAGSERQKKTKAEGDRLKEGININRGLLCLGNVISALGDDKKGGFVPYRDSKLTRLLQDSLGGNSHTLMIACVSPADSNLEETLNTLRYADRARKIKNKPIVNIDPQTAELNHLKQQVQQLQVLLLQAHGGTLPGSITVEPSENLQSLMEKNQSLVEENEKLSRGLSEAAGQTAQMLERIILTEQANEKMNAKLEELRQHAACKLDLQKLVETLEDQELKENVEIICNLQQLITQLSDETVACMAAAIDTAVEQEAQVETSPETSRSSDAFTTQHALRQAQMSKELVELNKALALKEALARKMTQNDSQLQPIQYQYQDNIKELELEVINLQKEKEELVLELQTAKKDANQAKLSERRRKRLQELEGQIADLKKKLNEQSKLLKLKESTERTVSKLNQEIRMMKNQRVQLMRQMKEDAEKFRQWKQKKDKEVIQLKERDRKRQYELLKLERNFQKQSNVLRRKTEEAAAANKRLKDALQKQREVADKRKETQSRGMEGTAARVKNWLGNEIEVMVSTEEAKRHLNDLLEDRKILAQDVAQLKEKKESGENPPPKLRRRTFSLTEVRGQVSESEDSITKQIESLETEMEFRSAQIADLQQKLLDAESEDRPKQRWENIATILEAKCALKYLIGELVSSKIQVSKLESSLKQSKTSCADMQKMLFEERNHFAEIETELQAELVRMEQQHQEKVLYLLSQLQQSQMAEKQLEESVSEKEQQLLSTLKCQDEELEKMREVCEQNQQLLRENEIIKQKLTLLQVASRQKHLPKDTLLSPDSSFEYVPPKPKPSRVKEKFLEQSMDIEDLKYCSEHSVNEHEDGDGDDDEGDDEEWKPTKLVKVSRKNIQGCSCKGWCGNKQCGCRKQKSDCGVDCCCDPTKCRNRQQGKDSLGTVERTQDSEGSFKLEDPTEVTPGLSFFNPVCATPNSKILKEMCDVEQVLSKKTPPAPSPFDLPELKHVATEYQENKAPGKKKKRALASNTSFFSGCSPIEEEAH
UniProt P28838: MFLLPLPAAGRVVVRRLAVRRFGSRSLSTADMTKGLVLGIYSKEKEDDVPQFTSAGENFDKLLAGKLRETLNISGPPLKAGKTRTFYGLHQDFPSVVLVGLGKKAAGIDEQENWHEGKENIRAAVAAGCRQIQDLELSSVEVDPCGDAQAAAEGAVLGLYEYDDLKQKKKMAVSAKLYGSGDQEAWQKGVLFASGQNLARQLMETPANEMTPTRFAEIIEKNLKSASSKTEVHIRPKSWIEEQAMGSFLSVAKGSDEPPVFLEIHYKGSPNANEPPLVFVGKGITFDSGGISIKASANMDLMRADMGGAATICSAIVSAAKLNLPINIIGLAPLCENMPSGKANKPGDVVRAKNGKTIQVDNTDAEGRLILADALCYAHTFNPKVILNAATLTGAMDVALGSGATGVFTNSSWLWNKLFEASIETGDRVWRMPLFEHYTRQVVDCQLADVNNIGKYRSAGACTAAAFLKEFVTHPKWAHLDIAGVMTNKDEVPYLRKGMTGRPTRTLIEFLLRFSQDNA

Compound: Cc1cc(ccc1-c1ccccc1)C(=O)N1CCCN(CC1)C(=O)CCl [compound 10]
Test: probe-labelled cysteine peptide fold change vs DMSO (competition) (log2 fold change); higher = less target engagement (more negative = stronger competition)
Details: THP-1, incubation time: 4 h
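Further: competitive profiling in live THP-1 cells: cysteine peptides tagged with an iodoacetamide desthiobiotin (IA-DTB) probe, intensity after compound treatment relative to DMSO-treated cells.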

| Target | probe-labelled cysteine peptide fold change (10 µM) | probe-labelled cysteine peptide fold change (50 µM) |
| --- | --- | --- |
| LANCL2_Q9NS86_367_GYGICHGTAGNGYSFLSLYR (UniProt Q9NS86) | -0.271 | 0.0177 |
| KPNB1_Q14974_359_AAGVCLMLLATCCEDDIVPHVLPFIK (UniProt Q14974) | -0.17 | -0.106 |
| KIFC1_Q9BW19_557_GLQCGAPLSLVDLAGSER (UniProt Q9BW19) | -0.0151 | 0.167 |
| LCOR_Q96JN0-3_304_ILEGQTTGQEQDTNVNICEDGK (UniProt Q96JN0) | -0.0082 | -0.0984 |
| KYNU_Q16719_425_GVVCDK (UniProt Q16719) | -0.0714 | -0.329 |
| LCP1_P13796_206_KKLTPFTIQENLNLALNSASAIGCHVVNIGAEDLK (UniProt P13796) | 0.0815 | 0.223 |
| LCP1_P13796_336_DDIQRAECMLQQAER (UniProt P13796) | -0.504 | -0.778 |
| KLHDC4_Q8TBB5_120_CAHQAVVVPQGGGQLWVFGGEFASPNGEQFYHYK (UniProt Q8TBB5) | -0.0523 | 0.0256 |
| KIF5B_P33176_174_FVCSPDEVMDTIDEGK (UniProt P33176) | -0.26 | -0.351 |
| KMT2D_O14686_214_TLQLLCPEHSEGAAYLEEAR (UniProt O14686) | -0.0158 | 0.2 |
| KIF4A_O95239_965_CQDEELEK (UniProt O95239) | -0.106 | -0.0153 |
| LAP3_P28838_376_LILADALCYAHTFNPK (UniProt P28838) | 0.0434 | 0.0196 |
| KPNB1_Q14974_765_ESCLEAYTGIVQGLKGDQENVHPDVMLVQPR (UniProt Q14974) | 0.414 | -0.185 |
